Experimental data taken from PMC5663475, “SAV1 promotes Hippo kinase activation through antagonizing the PP2A phosphatase STRIPAK” (eLife, 2017).
These are yes or no findings as the source states them, for the method shown. In cells and extracts the contact can be indirect. Binding can be weak; no strength is given.

Sequences of proteins named here, by UniProt entry; tags and fusion partners are left off. A change or cut given only in a name is not applied to a line headed by its entry.
UniProt Q13188: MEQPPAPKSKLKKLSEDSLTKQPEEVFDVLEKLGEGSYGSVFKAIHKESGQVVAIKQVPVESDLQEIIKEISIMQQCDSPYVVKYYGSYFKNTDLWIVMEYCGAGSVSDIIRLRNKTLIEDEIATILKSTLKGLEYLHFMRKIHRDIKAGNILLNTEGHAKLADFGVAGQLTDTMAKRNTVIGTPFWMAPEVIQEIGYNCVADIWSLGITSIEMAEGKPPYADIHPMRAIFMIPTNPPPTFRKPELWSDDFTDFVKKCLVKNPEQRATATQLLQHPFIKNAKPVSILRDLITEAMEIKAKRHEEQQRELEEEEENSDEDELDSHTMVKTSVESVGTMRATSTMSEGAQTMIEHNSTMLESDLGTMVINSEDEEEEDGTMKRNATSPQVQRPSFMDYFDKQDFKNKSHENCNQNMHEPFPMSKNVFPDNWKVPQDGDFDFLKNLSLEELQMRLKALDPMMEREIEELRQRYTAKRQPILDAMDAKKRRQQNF

How the values were obtained:
Assay in all cases: co-IP; anti-FLAG IP from lysates of 293FT cells transfected with FLAG-MST2 plasmids; endogenous SLMAP detected by anti-SLMAP blot
[1] = molecular target: FLAG-MST2 7TA mutant with T325 restored (human) (UniProt Q13188)
[2] = molecular target: FLAG-MST2 7TA mutant with T336 restored (human) (UniProt Q13188)
[3] = molecular target: FLAG-MST2 7TA mutant with T378 restored (human) (UniProt Q13188)

binding [1]: binds
binding [2]: binds
binding [3]: binds
B1: endogenous SLMAP (protein, UniProt Q14BN4 1-828)
chain: MPSALAIFTCRPNSHPFQERHVYLDEPIKIGRSVARCRPAQNNATFDCKVLSRNHALVWFDHKTGKFYLQDTKSSNGTFINSQRLSRGSEESPPCEILSGDIIQFGVDVTENTRKVTHGCIVSTIKLFLPDGMEARLRSDVIHAPLPSPVDKVAANTPSMYSQELFQLSQYLQEALHREQMLEQKLATLQRLLAITQEASDTSWQALIDEDRLLSRLEVMGNQLQACSKNQTEDSLRKELIALQEDKHNYETTAKESLRRVLQEKIEVVRKLSEVERSLSNTEDECTHLKEMNERTQEELRELANKYNGAVNEIKDLSDKLKVAEGKQEEIQQKGQAEKKELQHKIDEMEEKEQELQAKIEALQADNDFTNERLTALQVRLEHLQEKTLKECSSLEHLLSKSGGDCTFIHQFIECQKKLIVEGHLTKAVEETKLSKENQTRAKESDFSDTLSPSKEKSSDDTTDAQMDEQDLNEPLAKVSLLKDDLQGAQSEIEAKQEIQHLRKELIEAQELARTSKQKCFELQALLEEERKAYRNQVEESTKQIQVLQAQLQRLHIDTENLREEKDSEITSTRDELLSARDEILLLHQAAAKVASERDTDIASLQEELKKVRAELERWRKAASEYEKEITSLQNSFQLRCQQCEDQQREEATRLQGELEKLRKEWNALETECHSLKRENVLLSSELQRQEKELHNSQKQSLELTSDLSILQMSRKELENQVGSLKEQHLRDSADLKTLLSKAENQAKDVQKEYEKTQTVLSELKLKFEMTEQEKQSITDELKQCKNNLKLLREKGNNKPWPWMPMLAALVAVTAIVLYVPGLARASP
